Test results as given in PMC8192522.
No constants are given. Whether binding was seen depends on the method and setting. In cells and extracts the contact can be indirect. These calls come from enrichment with a bait or labelling near it, and not all partners need be listed. Where a sequence is shown, tags or fusion partners need not be part of it.

Chains of the proteins cited; added tags and fusions are not shown.
UniProt P34931: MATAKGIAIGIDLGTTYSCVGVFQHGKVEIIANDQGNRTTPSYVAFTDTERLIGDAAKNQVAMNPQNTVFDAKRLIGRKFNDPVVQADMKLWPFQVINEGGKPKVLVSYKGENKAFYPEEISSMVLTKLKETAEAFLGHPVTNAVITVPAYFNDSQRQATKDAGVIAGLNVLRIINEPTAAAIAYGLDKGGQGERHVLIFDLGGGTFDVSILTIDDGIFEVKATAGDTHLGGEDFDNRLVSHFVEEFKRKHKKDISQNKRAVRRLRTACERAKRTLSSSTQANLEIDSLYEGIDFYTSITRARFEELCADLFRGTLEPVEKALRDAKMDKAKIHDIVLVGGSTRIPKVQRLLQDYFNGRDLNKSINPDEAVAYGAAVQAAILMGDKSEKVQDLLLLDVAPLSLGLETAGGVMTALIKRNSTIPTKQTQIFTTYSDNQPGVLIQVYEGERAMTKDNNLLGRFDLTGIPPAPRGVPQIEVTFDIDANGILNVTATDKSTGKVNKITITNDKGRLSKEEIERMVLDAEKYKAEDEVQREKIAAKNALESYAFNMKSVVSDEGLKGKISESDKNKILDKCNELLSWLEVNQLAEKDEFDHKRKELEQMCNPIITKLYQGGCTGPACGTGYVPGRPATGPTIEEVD

Target: T1, HA-BirA*-FKBP4 (human) (UniProt Q02790)
T1 sequence: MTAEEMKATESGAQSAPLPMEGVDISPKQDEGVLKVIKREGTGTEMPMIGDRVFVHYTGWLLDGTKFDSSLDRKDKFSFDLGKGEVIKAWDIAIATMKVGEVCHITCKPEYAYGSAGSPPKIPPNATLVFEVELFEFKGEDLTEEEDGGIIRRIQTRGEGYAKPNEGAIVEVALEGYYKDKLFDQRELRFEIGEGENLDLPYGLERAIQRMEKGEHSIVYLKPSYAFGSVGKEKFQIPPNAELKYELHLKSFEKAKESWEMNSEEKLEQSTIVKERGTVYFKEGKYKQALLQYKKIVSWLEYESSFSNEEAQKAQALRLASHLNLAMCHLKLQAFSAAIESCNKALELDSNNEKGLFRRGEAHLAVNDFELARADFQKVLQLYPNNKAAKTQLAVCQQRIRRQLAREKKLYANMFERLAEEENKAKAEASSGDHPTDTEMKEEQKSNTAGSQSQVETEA
Test: proximity labelling; BioID: H1975 cells stably transfected with HA-BirA*-FKBP4 (control HA-BirA*), 50 μM biotin for 24 h, streptavidin agarose, mass spectrometry

binding: binds
Substance: endogenous Hsp70 (HSPA1L) (from UniProt P34931 1-641)
